{"sequences": {"note": "Protein sequences, listed by entry. Tags and fused reporters are not part of them. Lines headed by an entry give the natural chain unless they say otherwise; changes in a name come on top.", "UniProt P15941": "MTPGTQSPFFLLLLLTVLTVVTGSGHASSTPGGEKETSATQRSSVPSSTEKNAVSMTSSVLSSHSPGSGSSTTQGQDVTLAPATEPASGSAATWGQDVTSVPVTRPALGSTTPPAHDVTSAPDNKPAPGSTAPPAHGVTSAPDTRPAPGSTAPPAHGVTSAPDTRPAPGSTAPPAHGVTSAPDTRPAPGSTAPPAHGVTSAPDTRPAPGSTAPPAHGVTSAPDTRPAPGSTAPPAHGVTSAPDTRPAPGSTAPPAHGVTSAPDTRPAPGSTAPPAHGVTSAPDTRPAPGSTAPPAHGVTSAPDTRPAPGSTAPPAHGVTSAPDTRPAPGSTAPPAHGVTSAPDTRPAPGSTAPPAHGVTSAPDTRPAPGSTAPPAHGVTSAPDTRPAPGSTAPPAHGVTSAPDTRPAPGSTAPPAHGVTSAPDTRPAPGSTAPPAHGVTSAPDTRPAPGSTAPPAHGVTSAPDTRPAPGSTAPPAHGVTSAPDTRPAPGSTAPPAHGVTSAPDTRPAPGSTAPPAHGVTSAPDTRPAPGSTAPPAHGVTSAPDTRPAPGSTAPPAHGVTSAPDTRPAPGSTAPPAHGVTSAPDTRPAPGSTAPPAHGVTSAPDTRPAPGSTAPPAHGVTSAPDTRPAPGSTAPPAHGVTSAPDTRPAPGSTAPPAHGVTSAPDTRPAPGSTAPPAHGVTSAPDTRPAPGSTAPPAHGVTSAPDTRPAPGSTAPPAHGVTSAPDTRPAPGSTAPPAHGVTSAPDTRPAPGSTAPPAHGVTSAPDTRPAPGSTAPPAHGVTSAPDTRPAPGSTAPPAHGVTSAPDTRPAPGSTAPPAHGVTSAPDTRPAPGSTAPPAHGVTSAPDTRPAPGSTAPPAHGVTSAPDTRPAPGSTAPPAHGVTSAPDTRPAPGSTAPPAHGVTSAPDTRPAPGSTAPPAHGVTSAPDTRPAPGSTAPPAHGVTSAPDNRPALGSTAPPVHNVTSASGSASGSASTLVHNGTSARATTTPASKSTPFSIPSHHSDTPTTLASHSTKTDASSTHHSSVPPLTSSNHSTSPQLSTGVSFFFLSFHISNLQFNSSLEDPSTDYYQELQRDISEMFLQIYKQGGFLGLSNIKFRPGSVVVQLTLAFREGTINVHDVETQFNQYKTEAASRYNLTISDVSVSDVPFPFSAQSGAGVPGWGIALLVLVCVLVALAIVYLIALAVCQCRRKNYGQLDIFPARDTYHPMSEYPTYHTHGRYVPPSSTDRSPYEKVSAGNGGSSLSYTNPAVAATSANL"}, "source": "patent US5827498A", "about": "“Tumor affinity peptide, and radioactive diagnostic agent and radioactive therapeutic agent containing the peptide” (Nihon Medi-Physics Co., Ltd., priority 1994, dated 1998)", "biological_target": "T1, epitope VTSAPDTRPAPGST of mucin core protein conjugated to bovine serum albumin (BSA) (Homo sapiens, UniProt P15941)", "T1 construct": "made in house; host or cells: chemical peptide synthesis (no expression host)", "type": "binding", "protocol": "The epitope VTSAPDTRPAPGST of mucin core protein, to which the conventional peptide YCAREPPTRTNAYWG is known to bind, was synthesized and further conjugated to bovine serum albumin (BSA). The conjugated peptide was used as an artificial antigen to measure antigen affinity of peptide-14 by radioimmunoassay (RIA). The assay will be described below in detail.\nEach 200 μl of 10 μg/ml solution of the artificial antigen in 50 mmol sodium carbonate buffer of a pH of 9.5 was added to each of 2 ml tubes containing polystyrene beads of 6.35 mm in diameter. The tubes were stood still overnight at 4° C. Then, the inside of the tubes was washed three times by a washing agent of 0.05%(v/v) Tween 20 PBS (phosphate buffer saline, pH 7.5). In order to block the portions to which the artificial antigen is not bound of the surface of the polystyrene beads, 200 μl of 1% BSA-PBS was each added to each of the tubes. The tubes were stood still for 3 hours at room temperature. Then, the inside of the tubes was washed three times.\nPeptide-14 was diluted to 500, 100, 50, 10, 5, 1, 0.5, 0.1 and 0.05 μg/ml with PBS containing 1% PRIONEX™ (an albumin substitute of Pentapharm, Ltd.). […] Each of the diluted peptide-containing solutions was added to each of the […] tubes, followed by adding thereto 100 μl of the previously-prepared antibody solution. The tubes were stood still for 3 hours. Then, the inside of the tubes was washed three times with the washing agent.\nA sheep antimouse antibody labelled with iodine-125 (3.7 MBq/ml, made by Amersham Co.) was diluted 100-fold with 1% BSA-PBS. To each of the tubes, 200 μl of the diluted antimouse antibody was added. Then, the tubes were stood still for 2 hours at 37° C. Then, the inside of the tubes was washed three times with the washing agent, and radioactivity was measured by use of an auto well gammma ray counter.", "key": {"[1]": {"details": "PT 1.0 × 10^-4 g/ml (4.8 × 10^-5 mol/l)"}, "[2]": {"details": "PT 1.0 × 10^-5 g/ml (4.8 × 10^-6 mol/l)"}, "[3]": {"details": "PT 1.0 × 10^-6 g/ml (4.8 × 10^-7 mol/l)"}, "[4]": {"details": "PT 1.0 × 10^-7 g/ml (4.8 × 10^-8 mol/l)"}, "[5]": {"details": "PT 5.0 × 10^-4 g/ml (2.4 × 10^-4 mol/l)"}, "[6]": {"details": "PT 5.0 × 10^-5 g/ml (2.4 × 10^-5 mol/l)"}, "[7]": {"details": "PT 5.0 × 10^-6 g/ml (2.4 × 10^-6 mol/l)"}, "[8]": {"details": "PT 5.0 × 10^-7 g/ml (2.4 × 10^-7 mol/l)"}, "[9]": {"details": "PT 5.0 × 10^-8 g/ml (2.4 × 10^-8 mol/l)"}}, "note": "Read-outs that look alike come from different tables or passages of the source. Part of at least one peptide drawing is inferred or uncertain, most often the ends. No end group written: not given here."}
{"sequence": "KYCAREPPTRTNAYWGQG [peptide-14, KYCAREPPTRTNAYWGQG]", "values": [{"measurement": "binding amount", "setting": "[1]", "result": 10.653, "unit": "mol × 10^-13"}, {"measurement": "binding amount/non-binding amont", "setting": "[1]", "result": "2.2 × 10^-8"}, {"measurement": "binding amount", "setting": "[2]", "result": 10.920, "unit": "mol × 10^-13"}, {"measurement": "binding amount/non-binding amont", "setting": "[2]", "result": "2.3 × 10^-7"}, {"measurement": "binding amount", "setting": "[3]", "result": 6.933, "unit": "mol × 10^-13"}, {"measurement": "binding amount/non-binding amont", "setting": "[3]", "result": "1.5 × 10^-6"}, {"measurement": "binding amount", "setting": "[4]", "result": 5.072, "unit": "mol × 10^-13"}, {"measurement": "binding amount/non-binding amont", "setting": "[4]", "result": "1.1 × 10^-5"}, {"measurement": "binding amount", "setting": "[5]", "result": 11.577, "unit": "mol × 10^-13"}, {"measurement": "binding amount/non-binding amont", "setting": "[5]", "result": "4.9 × 10^-9"}, {"measurement": "binding amount", "setting": "[6]", "result": 11.068, "unit": "mol × 10^-13"}, {"measurement": "binding amount/non-binding amont", "setting": "[6]", "result": "4.6 × 10^-8"}, {"measurement": "binding amount", "setting": "[7]", "result": 9.145, "unit": "mol × 10^-13"}, {"measurement": "binding amount/non-binding amont", "setting": "[7]", "result": "3.8 × 10^-7"}, {"measurement": "binding amount", "setting": "[8]", "result": 7.808, "unit": "mol × 10^-13"}, {"measurement": "binding amount/non-binding amont", "setting": "[8]", "result": "3.3 × 10^-6"}, {"measurement": "binding amount", "setting": "[9]", "result": 5.367, "unit": "mol × 10^-13"}, {"measurement": "binding amount/non-binding amont", "setting": "[9]", "result": "2.3 × 10^-5"}, {"measurement": "antigen affinity (Ka)", "setting": "from scatchard plot", "result": "2.34×10^7"}]}
